The campaign covered roughly 330,000 compounds. About 7,700 (2.3%) were called active. This list was built around the results that the source calls inconclusive (neither active nor inactive); the mix of calls is not that of the screen. Calls come from the whole dose curve; as a rule, active = well fitted inhibition curve with a large enough effect; inconclusive = small, poorly fitted or top-dose-only effect, or effect the other way; inactive = flat fitted curve, though single readings scatter. Potencies beside an inconclusive call are fits to weak or partial responses and may not hold up.
Assay: qHTS screen for small molecules that inhibit ELG1-dependent DNA repair in human embryonic kidney (HEK293T) cells expressing luciferase-tagged ELG1; note: nearly all actives have a fitted effect of over 55% in size
Settings: HEK293T ELG1-luciferase reporter, luminescence, 16 h, DNA damage induced by 5-fluorouridine; series mostly up to 46.1 µM
Procedure, shortened: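 HEK293T cells expressing luciferase-tagged ELG1 (2,000/well) received 5-Fluorouridine plus compound or DMSO for 16 hr at 37 °C. Luciferase was read by ONE-Glo luminescence after 30 min at room temperature.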
Potency is the fitted concentration of half-maximal effect.

| SMILES | Potency |
| --- | --- |
| CCOc1ccc(-c2cc(NC(=O)Cn3ncc4c3-c3ccccc3OC4)on2)cc1OCC | inactive |
| O=CN(/C=C1\Sc2ccccc2C1=O)Cc1ccccc1 | inconclusive: 16.4 µM [activator, partial curve] |
| COc1cccc(NC(=O)CSc2nccn2-c2cccc(OC)c2)c1 | inconclusive: 20.6 µM [inhibitor, single point] |
| CC(C)N1C(=O)N(c2ccc(Cl)cc2)C(C)(O)CC1(C)C (configuration not stated) | inactive |
| CCCC(=O)N/C(N)=N/c1nc(C)c2cc(C)ccc2n1 | inconclusive: 10.3 µM [activator, partial curve, poor fit] |
| O=C(NCC1CCCO1)C(c1cccs1)N(Cc1ccccc1Cl)C(=O)c1ccc(-c2ccccc2)[nH]1 (configuration not stated) | inconclusive: 11.6 µM [inhibitor, partial curve] |
| COC(=O)C1CCN(CC(=O)Nc2ccc(OC)c(Cl)c2)CC1 | inactive |
| Cc1cc(C(F)(F)F)n(-c2nc(C(=O)N/N=C/c3ccc(F)cc3)cs2)n1 | inactive |
| Cc1cccc(NC(=O)C(C)Sc2nc3ccccc3c(=O)n2CCCN2CCOCC2)c1 (configuration not stated) | inactive |
| CCCn1c(NCc2ccccc2NS(=O)(=O)c2ccc(C)cc2)nc2ccccc21 | inconclusive: 32.6 µM [inhibitor, single point] |
| COc1ccccc1OCCCC(=O)NC(C)c1ccccc1 (configuration not stated) | inactive |
| CC(C)c1ccc(-c2csc3ncnc(N4CCN(C)CC4)c23)cc1 | active: 11.6 µM |
| O=C(N/N=C/C=C/c1ccccc1)c1cccnc1 | inactive |
| C=C(C)COc1ccc(-c2[nH]ncc2-c2ccc(Br)cc2)c(O)c1 | inconclusive: 3.66 µM [inhibitor, full curve, poor fit] |
| CC(C)(CO)NC(=O)c1ccc2nc(Cc3cccc(Cl)c3)oc2c1 | inconclusive: 14.6 µM [activator, partial curve] |
| CCOc1ccc(Nc2nc3ccccc3n3nnnc23)cc1 | inconclusive: 18.4 µM [activator, partial curve] |
| COC(=O)CNC(=O)C(Cc1ccccc1)NS(=O)(=O)c1ccc2c(c1)c(=O)n(C)c(=O)n2C (configuration not stated) | inactive |
| CCOc1ccc(NC(=O)CN(C)C(=O)c2ccccc2CCc2ccccc2)cc1OCC | active: 7.3 µM |
| CCOc1cc(/C=C(\C#N)c2nc(-c3cccs3)c(NC(C)=O)s2)ccc1O | inconclusive: 18.4 µM [inhibitor, partial curve] |
| CSc1nccc(-c2nn(-c3ccc(C)cc3)ccc2=O)n1 | inconclusive: 1.46 µM [inhibitor, full curve] |
| O=C(CCCOc1ccc(Cl)cc1)N1CCCCCC1 | inconclusive: 8.2 µM [activator, partial curve, poor fit] |
| CCCCn1c2nc3ccccc3nc2c2c(=O)n(-c3ccccc3)cnc21 | inconclusive: 25.9 µM [inhibitor, partial curve, poor fit] |
| CCCN1C(=O)/C(=C/c2ccc(N3CCCC3)c(C)c2)NC1=S | active: 10.3 µM |
| COc1ccc(-c2csc(N3C(=O)CNC3=S)n2)cc1 | inconclusive: 2.31 µM [activator, partial curve] |

| SMILES | Potency |
| --- | --- |
| CC(=O)NC12CC3CC(C1)CC(C(=O)N(C)Cc1cccc(Cl)c1Cl)(C3)C2 | inactive |
| CCOC(=O)C1=C(Cn2ccc(C(F)(F)F)n2)NC(=O)NC1c1ccc2c(c1)OCO2 (configuration not stated) | inconclusive: 9.2 µM [inhibitor, partial curve, poor fit] |
| CCCn1c(O)c(N=NC(=O)c2ccco2)c2ccccc21 | inconclusive: 18.4 µM [inhibitor, single point] |
| Cc1ccc(C(=O)C2=C(O)C(=O)N(Cc3cccnc3)C2c2ccc(OC(C)C)cc2)o1 (configuration not stated) | inconclusive: 29.1 µM [inhibitor, single point] |
| Cc1cc(NC(=O)C(C)SCC(=O)N(Cc2ccccc2)c2ccccc2)no1 (configuration not stated) | inactive |
| CCOC(=O)c1c(NC(=O)COC(=O)CNC(=O)c2ccco2)sc(C(C)=O)c1C | inactive |
| CN(C)S(=O)(=O)c1cccc(C(=O)OCC(=O)Nc2ccc3c(c2)OCCO3)c1 | inactive |
| CS(=O)(=O)Nc1cccc(C(=O)CC2(O)C(=O)Nc3ccccc32)c1 (configuration not stated) | inactive |
| O=C(CNC(=S)N(CCCN1CCOCC1)Cc1cccs1)NC1CCCCCCC1 | inconclusive: 13 µM [activator, partial curve] |
| CCCN1CCN(CCCNC(=O)CCN2C(=O)COc3ccccc32)CC1 | inconclusive: 16.4 µM [activator, partial curve, poor fit] |
| CCC(=O)OCc1cc2cccc(C)c2[nH]c1=O | inconclusive: 5.17 µM [inhibitor, single point] |
| O=C(CCN1C(=O)c2ccccc2S1(=O)=O)Nc1ccccc1F | inactive |
| O=C(c1ccc(-c2ccccc2)c(F)c1)C1CCCN(CCCn2cccn2)C1 (configuration not stated) | inactive |
| COc1cccc(/C=N/NC(=O)C(=O)N/N=C/c2cccc(OC)c2O)c1O | inconclusive: 25.9 µM [inhibitor, single point] |
| CCc1ccc(-n2c(SCC(=O)c3ccc4c(c3)NC(=O)CO4)nc3ccccc3c2=O)cc1 | inconclusive: 18.3 µM [activator, single point] |
| CC(C)(C)c1cc(-c2n[nH]c(=S)n2-c2ccccc2F)n[nH]1 | inconclusive: 10.3 µM [activator, partial curve] |
| CSc1nsc(NC(=O)OCc2ccc(Cl)cc2)n1 | inactive |
| COc1ccc(-c2cc(-c3ccc(Br)cc3)nc3ncnn23)cc1OC | inconclusive: 13 µM [inhibitor, partial curve] |
| Cc1ccc(S(=O)(=O)/N=C2\C=C(Nc3cccc(C(=O)O)c3)C(=O)c3ccccc32)c(C)c1 | inconclusive: 29.1 µM [inhibitor, single point] |
| COc1ccccc1NC(=O)C1=C(C)Nc2ncnn2C1c1ccc(C)o1 (configuration not stated) | inconclusive: 16.4 µM [inhibitor, single point] |
| Cc1ccc2c(=O)cc(C(=O)NCCc3ccc(S(N)(=O)=O)cc3)oc2c1 | active: 9.2 µM |
| C=CCNC(=S)Nc1ccc(Br)cc1F | inactive |
| O=C(CSc1nc2ccccc2[nH]1)c1ccco1 | inconclusive: 20.6 µM [activator, partial curve] |
| CC1(C)CC(=O)N(CC(=O)N2CCN(c3ncccn3)CC2)c2ccccc2S1(=O)=O | inconclusive: 0.259 µM [activator, single point] |

| SMILES | Potency |
| --- | --- |
| Cc1ccc(C(=O)CNc2ccccc2)cc1 | inconclusive: 14.6 µM [activator, partial curve] |
| Cc1ccccc1C(OCC(O)CN1CCCCC1CCO)c1ccccc1 (configuration not stated) | inconclusive: 32.6 µM [inhibitor, partial curve, poor fit] |
| O=C(Nc1ccc2c(c1)OCO2)Nc1cnccn1 | inconclusive: 3.66 µM [activator, partial curve] |
| COc1cc2c(cc1OC)C(C)N(C(=O)Cn1ncc3c1-c1ccccc1OC3)CC2 (configuration not stated) | inconclusive: 25.9 µM [inhibitor, single point] |
| CSCCC(NC(=O)c1ccco1)C(=O)N1CCN(c2ccccc2O)CC1 (configuration not stated) | inactive |
| CCS(=O)(=O)N1CCCC(c2nc(-c3cccc(OC)c3)no2)C1 (configuration not stated) | inconclusive: 3.26 µM [activator, partial curve, poor fit] |
| COc1ccccc1C(=O)Oc1ccc2c(c1)O/C(=C\c1ccncc1)C2=O | inactive |
| COc1cc(NC(=O)c2cccs2)ccc1NC(=O)Cc1ccccc1 | inconclusive: 9.2 µM [inhibitor, partial curve, poor fit] |
| COc1cc(C2CC(=O)Oc3cc(C)c(Cl)c(C)c32)cc(OC)c1OC (configuration not stated) | inactive |
| COc1ccc(NC(=O)c2nnn(CC(=O)Nc3ccc4c(c3)OCO4)c2N)c(OC)c1 | inconclusive: 13 µM [activator, partial curve] |
| Cc1cc2oc(=O)ccc2cc1[N+](=O)[O-] | inactive |
| Cc1oc(-c2ccccc2F)nc1CS(=O)(=O)CC(=O)NCc1ccco1 | inactive |
| CCCCSCCCNC(=S)Nc1ccccc1C | inconclusive: 29.1 µM [inhibitor, single point] |
| NS(=O)(=O)c1ccc(N2CCOCC2)c(C(=O)NCc2ccc3c(c2)OCO3)c1 | inactive |
| COc1ccc(S(=O)(=O)N2C3CCC2CC(NC(=O)NC2CCCCC2)C3)cc1 (configuration not stated) | inconclusive: 23.1 µM [inhibitor, partial curve] |
| COc1ccccc1Nc1cc(C(=O)N2CCc3ccccc3C2)c2ccccc2n1 | inconclusive: 14.6 µM [inhibitor, partial curve] |
| CC(=O)Oc1oc(-c2ccccc2)nc1/C=N/c1ccccn1 | inconclusive: 13 µM [activator, partial curve] |
| O=c1[nH]cnc2sc3c(c12)CN(Cc1ccccc1)CC3 | inconclusive: 29.1 µM [inhibitor, single point] |
| Cc1ccc(SC[C@H](Cc2ccccc2)N2CCN(CCc3ccccc3)CCC2=O)cc1 | inconclusive: 29.1 µM [inhibitor, single point] |
| COCCNc1nc(N)c([N+](=O)[O-])c(NCC2CCCO2)n1 (configuration not stated) | inconclusive: 29.1 µM [activator, partial curve, poor fit] |
| O=C(O)COc1ccc(/C=C/c2nc3ccc([N+](=O)[O-])cc3s2)cc1 | inactive |
| O=C(NCc1ccc(F)cc1)c1cc(S(=O)(=O)N2CCCCC2)ccc1N1CCOCC1 | inconclusive: 25.9 µM [inhibitor, partial curve, poor fit] |
| CCC(C)NS(=O)(=O)c1cccs1 (configuration not stated) | inactive |
| COc1ccc2cc(-c3cc(C(=O)OCC(=O)Nc4c(C)n(C)n(-c5ccccc5)c4=O)c4ccccc4n3)ccc2c1 | inconclusive: 0.731 µM [activator, full curve] |

Nothing new here: an excerpt of the list.

| SMILES | Potency |
| --- | --- |
| COc1cc(C2CC(=O)Oc3cc(C)c(Cl)c(C)c32)cc(OC)c1OC (configuration not stated) | inactive |
| COc1ccc(NC(=O)c2nnn(CC(=O)Nc3ccc4c(c3)OCO4)c2N)c(OC)c1 | inconclusive: 13 µM [activator, partial curve] |
| Cc1cc2oc(=O)ccc2cc1[N+](=O)[O-] | inactive |
| Cc1oc(-c2ccccc2F)nc1CS(=O)(=O)CC(=O)NCc1ccco1 | inactive |
| CCCCSCCCNC(=S)Nc1ccccc1C | inconclusive: 29.1 µM [inhibitor, single point] |
| NS(=O)(=O)c1ccc(N2CCOCC2)c(C(=O)NCc2ccc3c(c2)OCO3)c1 | inactive |

Reference: PubChem BioAssay AID504467 (National Center for Advancing Translational Sciences (NCATS), 2011)
